PubChem BioAssay AID1259254 | NCATS, 2017
Assay: 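Gene knock-downs that lead to re-replication, shown by excess G2 DNA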 (primary screen). Cells: human HCT116 colorectal cancer cells. Reagents: single siRNA against human genes. Time to read-out: 3 days. Measured: 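Nuclei stained with Hoechst and imaged; cell-cycle phase assigned by DNA content; G2 share scaled per plate, non-targeting siRNA 0%, GMNN siRNA 100%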. Direction: G2 robust z-score: higher = more G2 cells, more excess DNA replication. Rule for the call: 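An siRNA counts as active if its G2 robust z-score lies at least 5 MADs above the screen median; here such calls match roughly 38% of GMNN control or more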.
Shown is one part, drawn at random, of about 59,000 reagents. Of all reagents, about 1,550 (2.6%) are marked active. 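G2 share is only a proxy for re-replication; each gene was hit by three separate siRNAs, and active genes were retested.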 A number with no mark means an inactive call. The numbers tell different reagents against one gene apart. Further read-outs or replicates are left out here. Not given: the amount of reagent.

gene knocked down,siRNA no.,G2 robust z-score
PLPP4 (GeneID 196051),1,0.459
PLPP4 (GeneID 196051),2,2.32
PLPP4 (GeneID 196051),3,-0.681
MIA2 (GeneID 4253),1,-0.0712
MIA2 (GeneID 4253),2,0.395
MIA2 (GeneID 4253),3,2.09
MIA2 (GeneID 4253),4,0.525
MIA2 (GeneID 4253),5,1.03
MIA2 (GeneID 4253),6,0.28
CDH10 (GeneID 1008),1,-0.22
CDH10 (GeneID 1008),2,0.301
CDH10 (GeneID 1008),3,0.157
RAD51-AS1 (GeneID 100505648),1,-0.242
RAD51-AS1 (GeneID 100505648),2,1.59
RAD51-AS1 (GeneID 100505648),3,-0.634
STYXL1 (GeneID 51657),1,0.566
STYXL1 (GeneID 51657),2,-1.14
STYXL1 (GeneID 51657),3,1.07
RNPS1P1 (GeneID 643446),1,-0.588
RNPS1P1 (GeneID 643446),2,-0.292
RNPS1P1 (GeneID 643446),3,-0.46
CYP3A7 (GeneID 1551),1,-1
CYP3A7 (GeneID 1551),2,0.76
CYP3A7 (GeneID 1551),3,-0.916
PSMB11 (GeneID 122706),1,-0.124
PSMB11 (GeneID 122706),2,-0.788
PSMB11 (GeneID 122706),3,2.2
COX14 (GeneID 84987),1,1.07
COX14 (GeneID 84987),2,-0.625
COX14 (GeneID 84987),3,-0.605
GGA2 (GeneID 23062),1,-0.591
GGA2 (GeneID 23062),2,-0.449
GGA2 (GeneID 23062),3,0.29
XTBD1 (GeneID 91368),1,-0.451
XTBD1 (GeneID 91368),2,0.488
XTBD1 (GeneID 91368),3,0.0664
FBRS (GeneID 64319),1,0.956
FBRS (GeneID 64319),2,-0.844
FBRS (GeneID 64319),3,-1.09
MMD2 (GeneID 221938),1,0.602
MMD2 (GeneID 221938),2,3.99
MMD2 (GeneID 221938),3,-0.437
LYSMD2 (GeneID 256586),1,0.813
LYSMD2 (GeneID 256586),2,-0.201
LYSMD2 (GeneID 256586),3,-0.221
CRIP3 (GeneID 401262),1,-0.191
CRIP3 (GeneID 401262),2,0.398
CRIP3 (GeneID 401262),3,0.0821
MRPL14 (GeneID 64928),1,-0.73
MRPL14 (GeneID 64928),2,-0.802
MRPL14 (GeneID 64928),3,-0.779
CYP26B1 (GeneID 56603),1,-1.44
CYP26B1 (GeneID 56603),2,2.47
CYP26B1 (GeneID 56603),3,0.473
AIMP2 (GeneID 7965),1,-1.27
AIMP2 (GeneID 7965),2,-0.353
AIMP2 (GeneID 7965),3,0.654
CANX (GeneID 821),1,-0.304
CANX (GeneID 821),2,-0.513
CANX (GeneID 821),3,-0.381
ITSN1 (GeneID 6453),1,-0.261
ITSN1 (GeneID 6453),2,-0.444
ITSN1 (GeneID 6453),3,-0.74
NUDT4 (GeneID 11163),1,-0.441
NUDT4 (GeneID 11163),2,1.76
NUDT4 (GeneID 11163),3,-0.00273
TRIP4 (GeneID 9325),1,-0.829
TRIP4 (GeneID 9325),2,1.27
TRIP4 (GeneID 9325),3,0.0897

Laid out differently: 10 of the entries above
| gene knocked down | siRNA no. | G2 robust z-score |
| --- | --- | --- |
| CDH10 (GeneID 1008) | 2 | 0.301 |
| CDH10 (GeneID 1008) | 3 | 0.157 |
| RAD51-AS1 (GeneID 100505648) | 1 | -0.242 |
| RAD51-AS1 (GeneID 100505648) | 2 | 1.59 |
| RAD51-AS1 (GeneID 100505648) | 3 | -0.634 |
| STYXL1 (GeneID 51657) | 1 | 0.566 |
| STYXL1 (GeneID 51657) | 2 | -1.14 |
| STYXL1 (GeneID 51657) | 3 | 1.07 |
| RNPS1P1 (GeneID 643446) | 1 | -0.588 |
| RNPS1P1 (GeneID 643446) | 2 | -0.292 |
